Source: patent US7919579B2, “Imaging and therapeutic targeting of prostate and bladder tissues” (The Board of Regents of the University of Texas System, priority 2006, dated 2011)
Not every detail of the peptide structures is certain; ends, links or a residue may be inferred.

What was measured:
[1] = tested on: PCa cells (LNCaP, C4-2, LAPC4 and PC3); experiment: uptake of FITC-tagged CPPs by PCa cells (fluorometer); format: cell-based; conditions: 30 minutes
Method: Cell culture and peptide incubation. All PCa cell lines (LNCaP, C4-2, LAPC4 and PC3) were maintained as described previously (Zhou et al., 2005). To determine the peptide uptake, 1×10^5 cells per well were plated in a 12-well plate. Next day, the culture medium was replaced with RPMI medium supplemented with 0.5% FBS (Invitrogen, Carlsbad, Calif.) containing different concentrations fluorescence (FITC)-tagged peptides and incubation was carried out at the indicated time. For determining cellular location of peptide, cells were cultured overnight in slide chamber at a density of 25×10^4/cm^2. The FITC tagged peptides were incubated for 30 minutes in the presence of RPMI medium supplemented with 0.5% of FBS prior to fluorescence microscopy.
Fluorescence intensity determination and Fluorescence microscopy.
Screening of the most efficient CPP uptake by prostate cancer (PCa) cell lines. To deliver small peptide into target cells, CPP was employed as a delivery system. Five different CPPs were synthesized including TAT (amino acid 49-57), Penetratin (Antennapedia 43-58) (PENE), KALA peptide, poly-arginine (R11) and poly-lysine (K11). All the CPPs were incorporated with a FITC-labeled glycine at their N-terminal ends. […] To determine the uptake quantitatively, fluorometer was used to measure the intensity of each CPP per cell basis. […]

PCa cells = experiment: fluorescence-activated cell sorting of CPP-positive PCa cells; format: cell-based; conditions: R11 at the lowest concentration
[2] = tested on: PCa cells (LNCaP, C4-2, LAPC4 and PC3); experiment: time course of R11 uptake by PCa cells; format: cell-based
C4-2 cells = experiment: cell growth assay (MTT), serum or DHT-induced proliferation; format: cell-based; conditions: 5 μM peptide, 5% FBS or 10 nM DHT, MTT 4 days
Method: (§1) FIGS. 3A-B—Inhibitory effect of R11PPL on serum and androgen-induced cell proliferation of PCa. LNCaP (FIG. 3A) or C4-2 cells (FIG. 3B) were incubated with 5 μM R11PPL, R11AAL or without peptide 3 hours before adding serum or DHT (10 nM) and relative cell number was determined by MTT assay. All the experiments were carried out in quadruplicates and repeated at least twice. Each column represents mean±SD in triplicate.
(§2) Cell growth assay and cell cycle analysis. Cells were plated in 96-well plate at a density of 10^3 per well in T-medium supplemented with 5% charcoal-stripped FBS for overnight. Cells were incubated with or without indicated peptides (5 μM) for 3 hours in the presence of T-medium supplemented with 0.5% charcoal-stripped FBS. Subsequently, cells were replaced with T-medium containing either 5% FBS or 10 nM dihydrotestosterone (DHT). The peptides were changed every 2 days. The cell proliferation was determined 4 days after the initial peptide treatment by using 3-(4,5-dimethylthiazol-2-yl)-2,5-diphenyltetrazolium bromide (MTT) assay (Roche, Indianapolis, Ind.).

LNCaP = experiment: as above; format: cell-based; conditions: 5 μM peptide, 5% FBS or 10 nM DHT, MTT 4 days
Method: as §1, §2

[3] = tested on: bladder cancer cells (T24, TCC, UMUC3 and WH); experiment: uptake of CPPs by bladder cancer cell lines (fluorescence-activated cell sorting); format: cell-based, human

## N=C(N)NCCC[C@H](NC(=O)[C@H](CCCNC(=N)N)NC(=O)[C@H](CCCNC(=N)N)NC(=O)[C@H](CCCNC(=N)N)NC(=O)[C@H](CCCNC(=N)N)NC(=O)[C@H](CCCNC(=N)N)NC(=O)[C@H](CCCNC(=N)N)NC(=O)[C@H](CCCNC(=N)N)NC(=O)[C@H](CCCNC(=N)N)NC(=O)[C@H](CCCNC(=N)N)NC(=O)[C@H](CCCNC(=N)N)NC(=O)CNC(=S)Nc1ccc2c(c1)C(=O)OC21c2ccc(O)cc2Oc2cc(O)ccc21)C(=O)O [R11, ^FITC-G-R11]
[1]; four PCa cell lines, FITC-tagged peptides 0.1, 1, 5 μM
  uptake, fold higher than other CPPs: at least 6 fold
[1]; four PCa cells
  uptake of R11, R11AAL and R11PPL compared: higher uptake
PCa cells
  cells with positive staining: 100%
[2]; 5 μM R11, LNCaP, C4-2 and LAPC4 cells
  incubation time to half maximal intensity: 5 min
[2]; 5 μM R11, PC3 cell
  incubation time at which plateau reached: ≤ 5 min
[2]; 5 μM R11, four PCa cell lines
  incubation time at which fluorescence intensity reached plateau: 10 min
[2]; PCa cells
  time at which uptake can be detected: ≤ 5 min
C4-2 cells
  serum or DHT-induced cell proliferation: but not R11 or R11AAL was able to suppress
LNCaP
  serum or DHT-induced cell proliferation: but not R11 or R11AAL was able to suppress
[3]; R11 at 5 μM, 30 min
  cells with uptake: ~100%
[3]; four bladder cancer cell lines, 30 minutes
  uptake, fold higher than other CPPs: at least 6 fold
